# PubChem BioAssay AID1347076 (National Center for Advancing Translational Sciences (NCATS), 2019)
# Out of some 400,000 compounds screened, about 13,000 (3.2%) were called active. This list was built around the results that the source calls inconclusive (neither active nor inactive); the mix of calls is not that of the screen. Calls come from the whole dose curve; as a rule, active = well fitted cell-killing curve with a large enough effect; inconclusive = small, poorly fitted or top-dose-only effect, or effect the other way; inactive = flat fitted curve, though single readings scatter. Where the call is inconclusive, the potency comes from a doubtful curve fit.
# Assay: qHTS assay for MDR1-selective chemotherapeutics: Primary screen using the drug-selected MDR subline cells KB-V1; note: nearly all actives have a fitted effect of over 60% in size
# Settings: KB-V1 MDR cells viability, CellTiter-Glo, 72 h; activity change, negative = cytotoxicity: at 46.1 µM (top of the series)
# Method in brief: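 Following 72 h at 37 degrees C with compound, KB-V1 cell viability was read by CellTiter-Glo luminescence, medium being phenol-red-free DMEM plus 10% FBS; concentration-response parameters came from normalized, curve-fitted qHTS data.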
# % is set by controls: 0 for no effect and ±100 for the full control effect; potency is the fitted concentration of half-maximal effect.
Compound,Potency,"activity change, negative = cytotoxicity"
CCOC(=O)N1CCC(n2c(SCC(=O)Nc3nccs3)nc3ccsc3c2=O)CC1,"inconclusive: 23.1 µM [cytotoxic, single point]",
O=S(Cc1cc(Sc2ccccc2)nc(-c2ccccc2)n1)c1ccccc1 (centres undefined),"inconclusive: 18.4 µM [cytotoxic, single point]",
COc1cc(C(=O)OC(C)C(=O)NCC2CCCCC2)cc(NC(=O)c2ccco2)c1OC (centres undefined),active: 20.6 µM,
Cc1cc(C)c(S(=O)(=O)N2CCOCC2)cc1NS(=O)(=O)c1cc(OCC(N)=O)c(C)cc1Cl,"inconclusive: 16.4 µM [rising, single point]",
CCN(Cc1ccc2c(c1)OCO2)C(=O)CSc1ncnc2sccc12,inactive,
O=c1c(Cc2ccc(F)cc2)c(O)ccn1Cc1cccc(Cl)c1,"inconclusive: 32.6 µM [cytotoxic, single point]",
COc1ccc(CCNC(=O)CCCOc2ccc(C)cc2)cc1OC,"inconclusive: 29.1 µM [cytotoxic, single point]",
COC(=O)c1c(NC(=S)Nc2ccc(CC(=O)O)cc2)sc(C)c1C,,inconclusive: 38.4%
CC1(C)Oc2ccc(C(=O)NC3CCCCC3)cc2N(CC#N)C1=O,"inconclusive: 20.6 µM [rising, single point]",
CN1CCN(C(=O)c2ccccc2-c2nc(-c3ccc(Cl)cc3)no2)CC1,"inconclusive: 1.84 µM [cytotoxic, full curve]",
CC(CNS(=O)(=O)c1ccccc1)(c1ccccc1)N1CCCCC1 (centres undefined),"inconclusive: 5.8 µM [cytotoxic, partial curve]",
COc1ccc(-c2noc(-c3ccccc3C(=O)NCc3ccco3)n2)cc1OC,active: 3.66 µM,
CN(C)S(=O)(=O)c1ccc(-c2csc(N/N=C/c3ccc(O)cc3)n2)cc1,active: 14.6 µM,
CCCCn1c(N)c(N(CCC(C)C)C(=O)c2cccc(N3C(=O)c4ccccc4C3=O)c2)c(=O)[nH]c1=O,,inconclusive: -31.7%
Cc1cc(-n2c(C)cc(C(=O)CSc3ccc4c(c3)OCCO4)c2C)no1,"inconclusive: 18.4 µM [cytotoxic, partial curve, poor fit]",
CN1CCn2cnc(C(=O)NCC(=O)OC(C)(C)C)c2C1=O,inactive,
CN(C)c1oc(-c2ccco2)nc1S(=O)(=O)c1ccc(Br)cc1,active: 4.61 µM,
O=C(NCCSCc1ccco1)Nc1cccc(Cl)c1,"inconclusive: 20.6 µM [cytotoxic, partial curve, poor fit]",
CCC(=O)c1ccc(OCC(=O)Nc2ccc3nc(C)sc3c2)cc1,"inconclusive: 20.6 µM [cytotoxic, partial curve, poor fit]",
COC(CNC(=O)Cc1c(C)nc2c(-c3ccccc3)c(C)nn2c1C)OC,"inconclusive: 29.1 µM [rising, single point]",
CC1CCCN(S(=O)(=O)c2ccc(S(=O)(=O)NC(C)c3cccs3)cc2)C1 (centres undefined),active: 16.4 µM,
Oc1ccccc1-c1nc(/C=C/c2ccc(F)cc2)no1,inactive,

Compound,Potency,"activity change, negative = cytotoxicity"
CN1C(=O)c2ccc(NC(=O)C3CC3)cc2C1=O,inactive,
CCN(CC(=O)Nc1cccc(OC)c1)c1ncnc2sc(C)c(C)c12,active: 2.31 µM,
COc1ccccc1NS(=O)(=O)c1cc(N/C(=N\S(=O)(=O)c2ccccc2)c2ccc(F)cc2)ccc1Cl,"inconclusive: 13 µM [cytotoxic, partial curve]",
Cc1ccc(NC(=O)COC(=O)C2CC2)c(Br)c1,"inconclusive: 14.6 µM [rising, single point]",
CCS(=O)(=O)c1c(Nc2ccc(F)c(Cl)c2)sc(C(=O)c2ccccc2)c1N,inactive,
CCc1nc2ccc(C(=O)NCc3ccc4c(c3)OCO4)cn2c1N(CC)Cc1cccc(Br)c1,"inconclusive: 23.1 µM [cytotoxic, single point]",
Cc1oc(-c2cccc(Cl)c2)nc1CN1CCC(C(=O)NCc2ccco2)CC1,inactive,
Cc1cccc(NC(=O)Cn2c(=O)n(Cc3ccc4c(c3)OCO4)c(=O)c3ccccc32)c1,inactive,
O=C(NCc1ccccn1)c1cc(S(=O)(=O)N2CCCCC2)ccc1Cl,"inconclusive: 29.1 µM [cytotoxic, single point]",
Cc1ccc(N2CCN(C(=O)c3nn(C)c4c3CS(=O)(=O)c3ccccc3-4)CC2C)cc1 (centres undefined),"inconclusive: 2.59 µM [cytotoxic, full curve, poor fit]",
CSc1nc2ccc(S(=O)(=O)NC3CCCCC3)cc2s1,active: 16.4 µM,
O=C(O)CCCc1ccc2c(c1)CCc1ccccc1-2,active: 2.06 µM,
O=[N+]([O-])c1cccc(S(=O)(=O)c2ccc(N3CCCCC3)c([N+](=O)[O-])c2)c1,"inconclusive: 11.6 µM [cytotoxic, partial curve]",
COc1ccc(C2NCCc3c2[nH]c2ccccc32)cc1COc1ccc(F)cc1 (centres undefined),"inconclusive: 29.1 µM [cytotoxic, single point]",
N#C/C(=N\Nc1ccc(Cl)cc1)C(N)=S,inactive,
O=C1CC[C@@H](OCc2ccccc2)CCN1CC[C@H](Sc1ccccc1)c1ccccc1,"inconclusive: 14.6 µM [cytotoxic, partial curve, poor fit]",
O=S(=O)(c1cccc(F)c1)N1CCN(c2ncnc3scc(-c4ccc(F)cc4)c23)CC1,"inconclusive: 23.1 µM [cytotoxic, single point]",
COc1ccc(-n2cc3c(c2-c2cccc(Br)c2)c(=O)n(C)c(=O)n3C)cc1OC,inactive,
CC(CCc1ccccc1)NC(=O)CN1CCN(c2ccc(O)cc2)CC1 (centres undefined),"inconclusive: 23.1 µM [cytotoxic, partial curve, poor fit]",
CCCCc1ccc(NC(=O)Cn2cnc3c2c(=O)n(C)c(=O)n3C)cc1,"inconclusive: 29.1 µM [rising, single point]",
Cc1nc(N2CCN(c3ccccn3)CC2)c2c(C)c(C(=O)Nc3ccc(F)cc3)sc2n1,"inconclusive: 18.4 µM [cytotoxic, partial curve, poor fit]",
CN(c1ccccc1C(=O)Nc1ccc(F)c(F)c1)S(C)(=O)=O,inactive,

# Look-ups from the entries so far:
# Potency with `COc1cc(C(=O)OC(C)C(=O)NCC2CCCCC2)cc(NC(=O)c2ccco2)c1OC` (centres undefined) is entered as active: 20.6 µM
# Potency with `CN(C)S(=O)(=O)c1ccc(-c2csc(N/N=C/c3ccc(O)cc3)n2)cc1` is entered as active: 14.6 µM
